Experimental data taken from patent publication US7160992B2, “Amino-modified polysaccharides and methods of generating and using same” (Yeda Research and Development Co., Ltd., priority 2003, dated 2007).
At least one compound was matched to its structure with a doubt left.

Test system: ICR (CD-1) mice
Assay: Acute intravenous toxicity of NeoR6 in mice
Type: in vivo
Conditions: individual animals
Method: Injection volumes applied ranged from 4–10 ml/kg
Observation of clinical signs post-NeoR6 injection—On the day of injection, careful clinical examinations were carried out continuously during the first 90 minutes post-injection. Thereafter, animals were inspected at least once a day for 14 consecutive days. Observations included changes in the skin and fur, eyes and mucous membranes, respiratory, circulatory, autonomic and central nervous systems, somatomotor activity and behavior pattern with particular attention to occurrence of tremors, convulsions, salivation, diarrhea, lethargy, sleep and coma.
Necropsy and Gross Pathology—All test animals, including decedents were subjected to gross necropsy. At necropsy all animals were thoroughly examined for abnormality of tissues or organs. All major body cavities were opened, larger organs were sectioned and the gastro-intestinal tract was opened at intervals for examination of the mucosal surfaces. The normal appearance of major organs was confirmed for each animal and any gross pathological changes or abnormalities were described.

With `NC(N)=NCCC[C@H](N)C(=O)NC[C@@H]1OC(O[C@H]2[C@@H](O)[C@H](O[C@@H]3[C@@H](O)[C@H](NC(=O)[C@@H](N)CCCN=C(N)N)C[C@H](NC(=O)[C@@H](N)CCCN=C(N)N)[C@H]3O[C@H]3O[C@H](CNC(=O)[C@@H](N)CCCN=C(N)N)[C@@H](O)[C@H](O)[C@H]3NC(=O)[C@@H](N)CCCN=C(N)N)O[C@@H]2CO)[C@H](NC(=O)[C@@H](N)CCCN=C(N)N)[C@@H](O)[C@@H]1O` (some centres unmarked) [NeoR6, Neomycin hexa-arginine conjugate] the “Weight Gain (gr.) (Day 1–15)” value (group 1F, 2 females, 10 mg/kg single bolus) was 4.1; 0 gr, the “Weight Gain (gr.) (Day 1–15)” value (group 1M, 2 males, 10 mg/kg single bolus) was 5.3; 5.8 gr and the “Weight Gain (gr.) (Day 1–15)” value (group 5M, 2 males, 35 mg/kg single bolus) was 8.3; 7.1 gr. For the same compound, the “Weight Gain (gr.) (Day 1–15)” value (group 6F, 3 females, 50 (2 × 25) mg/kg, two injections at 3 hours interval) was 4.5; 2.4; 4.7 gr and the “Weight Gain (gr.) (Day 1–15)” value (group 6M, 3 males, 50 (2 × 25) mg/kg, two injections at 3 hours interval) was 7.2; 7.2; 8.9 gr.
